Experimental data: PMC9479574
Residue numbers refer to the chain shown, from its start. No constants are given. Whether binding was seen depends on the method and setting. For some of these results: Binding seen in cells or lysates may run through a third protein. Some entries that bind do so weakly or less than the wild type. For some of these results: Sequences can lack the tags named with a protein.

How the values were obtained:
[1] = target: T1, SPTLC1^FLAG L39del variant (ALS) (human) (UniProt O15269); experiment: co-IP; FLAG immunoprecipitation (anti-FLAG magnetic M2 beads, 3 hours) of SPTLC1^FLAG and variants from 20,000g membrane fractions solubilized with digitonin (1% wt/vol; 50 mM Tris pH 7.4, 150 mM NaCl, 20 mM MgCl2); eluates immunoblotted for SPTLC2 and ORMDLs
T1 sequence: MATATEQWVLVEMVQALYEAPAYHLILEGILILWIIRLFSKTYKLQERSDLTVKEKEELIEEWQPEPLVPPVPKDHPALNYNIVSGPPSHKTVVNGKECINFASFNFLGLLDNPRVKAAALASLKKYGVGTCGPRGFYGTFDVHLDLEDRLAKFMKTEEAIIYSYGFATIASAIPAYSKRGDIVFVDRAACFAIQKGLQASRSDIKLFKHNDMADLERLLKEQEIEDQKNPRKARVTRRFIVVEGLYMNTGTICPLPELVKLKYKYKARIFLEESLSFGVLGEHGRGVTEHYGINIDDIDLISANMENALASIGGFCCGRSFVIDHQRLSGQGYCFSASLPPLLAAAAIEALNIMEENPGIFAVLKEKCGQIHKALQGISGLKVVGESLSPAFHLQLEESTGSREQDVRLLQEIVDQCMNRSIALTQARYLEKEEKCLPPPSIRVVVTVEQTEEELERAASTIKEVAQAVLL

[2] = target: T2, SPTLC1^FLAG Y23F variant (ALS) (human) (UniProt O15269); experiment: as above
T2 sequence: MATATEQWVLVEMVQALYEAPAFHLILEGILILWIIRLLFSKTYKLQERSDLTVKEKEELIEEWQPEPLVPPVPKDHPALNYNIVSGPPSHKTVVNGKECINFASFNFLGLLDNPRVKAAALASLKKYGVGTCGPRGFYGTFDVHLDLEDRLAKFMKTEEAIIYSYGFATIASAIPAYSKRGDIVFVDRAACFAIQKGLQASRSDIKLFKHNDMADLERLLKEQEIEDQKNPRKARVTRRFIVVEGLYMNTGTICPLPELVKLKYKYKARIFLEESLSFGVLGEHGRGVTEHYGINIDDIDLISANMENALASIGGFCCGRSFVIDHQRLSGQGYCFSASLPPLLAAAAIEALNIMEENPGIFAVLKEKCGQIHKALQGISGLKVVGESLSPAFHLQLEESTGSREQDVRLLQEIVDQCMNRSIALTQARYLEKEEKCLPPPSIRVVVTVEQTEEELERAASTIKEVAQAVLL

[3] = target: T3, SPTLC1^FLAG F40S41del variant (ALS) (human) (UniProt O15269); experiment: as above
T3 sequence: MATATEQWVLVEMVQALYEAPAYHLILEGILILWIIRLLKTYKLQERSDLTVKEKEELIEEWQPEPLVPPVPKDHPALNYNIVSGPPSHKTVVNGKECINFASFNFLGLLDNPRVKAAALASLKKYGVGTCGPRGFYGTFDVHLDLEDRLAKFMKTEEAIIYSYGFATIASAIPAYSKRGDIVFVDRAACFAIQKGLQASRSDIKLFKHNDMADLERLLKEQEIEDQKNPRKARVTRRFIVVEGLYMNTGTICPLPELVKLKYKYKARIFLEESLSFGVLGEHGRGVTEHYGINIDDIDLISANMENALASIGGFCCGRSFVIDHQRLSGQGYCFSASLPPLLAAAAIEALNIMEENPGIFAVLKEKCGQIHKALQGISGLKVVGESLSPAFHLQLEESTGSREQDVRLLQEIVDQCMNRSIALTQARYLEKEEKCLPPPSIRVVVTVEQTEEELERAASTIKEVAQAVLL

[4] = target: T4, SPTLC1^FLAG S331F variant (HSAN1) (human) (UniProt O15269); experiment: as above
T4 sequence: T2 sequence with F23Y, S331F

[5] = target: T5, SPTLC1^FLAG C133W variant (HSAN1) (human) (UniProt O15269); experiment: as above
T5 sequence: T2 sequence with F23Y, C133W

[6] = target: T6, WT-SPTLC1^FLAG (SPTLC1 with a C-terminal triple FLAG-tag) (human) (UniProt O15269); experiment: as above
T6 sequence: T2 sequence with F23Y

[7] = target: T1, SPTLC1^FLAG L39del variant (ALS) (human); experiment: native gel or EMSA; blue native PAGE (4%-13% gradient gel) of 20,000g membrane fractions solubilized with 4 g digitonin/g protein; immunoblotted with anti-SPTLC1, anti-SPTLC2 and anti-ORMDL antibodies
[8] = target: T2, SPTLC1^FLAG Y23F variant (ALS) (human); experiment: as above
[9] = target: T3, SPTLC1^FLAG F40S41del variant (ALS) (human); experiment: as above
[10] = target: T4, SPTLC1^FLAG S331F variant (HSAN1) (human); experiment: as above
[11] = target: T5, SPTLC1^FLAG C133W variant (HSAN1) (human); experiment: as above
[12] = target: T7, SPTLC1 (endogenous) (human (endogenous in Flp-In T-REx 293)) (UniProt O15269); experiment: as above
T7 sequence: T2 sequence with F23Y

[13] = target: T6, WT-SPTLC1^FLAG (SPTLC1 with a C-terminal triple FLAG-tag) (human); experiment: as above

- binding [1]: binds
- binding [2]: binds
- binding [3]: binds
- binding [4]: binds
- binding [5]: binds
- binding [6]: binds
- binding [7]: binds
- binding [8]: binds
- binding [9]: binds
- binding [10]: binds
- binding [11]: binds
- binding [12]: binds
- binding [13]: binds
B1: SPTLC2 (protein, UniProt O15270 1-562)
chain: MRPEPGGCCCRRTVRANGCVANGEVRNGYVRSSAAAAAAAAAGQIHHVTQNGGLYKRPFNEAFEETPMLVAVLTYVGYGVLTLFGYLRDFLRYWRIEKCHHATEREEQKDFVSLYQDFENFYTRNLYMRIRDNWNRPICSVPGARVDIMERQSHDYNWSFKYTGNIIKGVINMGSYNYLGFARNTGSCQEAAAKVLEEYGAGVCSTRQEIGNLDKHEELEELVARFLGVEAAMAYGMGFATNSMNIPALVGKGCLILSDELNHASLVLGARLSGATIRIFKHNNMQSLEKLLKDAIVYGQPRTRRPWKKILILVEGIYSMEGSIVRLPEVIALKKKYKAYLYLDEAHSIGALGPTGRGVVEYFGLDPEDVDVMMGTFTKSFGASGGYIGGKKELIDYLRTHSHSAVYATSLSPPVVEQIITSMKCIMGQDGTSLGKECVQQLAENTRYFRRRLKEMGFIIYGNEDSPVVPLMLYMPAKIGAFGREMLKRNIGVVVVGFPATPIIESRARFCLSAAHTKEILDTALKEIDEVGDLLQLKYSRHRLVPLLDRPFDETTYEETED
